These are yes or no findings as the source states them, for the method shown.
Legend:
[1] = molecular target: Myo6 834-955 (mouse) (UniProt Q64331); assay: SEC-MALS; fragments of the 3HB/SAH junction on Superdex 200 10/300 Increase, 0.5 mL/min; titration; apparent KD, dimer to monomers; both purified
[2] = molecular target: Myo6 875-940 T888D.R892E.V903D (mouse) (UniProt Q64331); assay: SEC-MALS; injection of 50 µL at 10 mg/mL in 10 mM Tris-HCl pH 7.5, 50 mM NaCl, 5 mM NaN3, 0.5 mM TCEP; peak concentration by the in-line refractometer; both purified

The chains behind the UniProt entries cited, without tags or fusion partners. Where a name states a change or a piece, a line headed by the entry shows the natural chain unless it says otherwise. A line that says so, or that is headed by a name, gives the form on record, which may keep a tag or linker. Residues count along the entry.
Myo6 834-955 (Q64331, residues 834-955): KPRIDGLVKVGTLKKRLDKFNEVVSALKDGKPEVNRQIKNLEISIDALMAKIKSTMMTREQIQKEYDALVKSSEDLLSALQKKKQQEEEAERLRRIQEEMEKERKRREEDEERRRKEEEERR
Myo6 875-940 T888D.R892E.V903D (Q64331, form named): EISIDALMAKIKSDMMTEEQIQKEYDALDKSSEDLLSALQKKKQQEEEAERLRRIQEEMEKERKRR

Q: “Myo6 834-955 (from UniProt Q64331 834-955) (domain or fragment)” was tested. Which binding [1] did it give?
A: Its binding is “no binding (tested: 30 µM (peak concentration))”.

Q: How did the binding [2] turn out when “Myo6 875-940 T888D.R892E.V903D (from UniProt Q64331 875-940) (domain or fragment)” was run?
A: Its binding is “no binding (tested: 43 µM (peak concentration))”.
